# Results are given in words; binding and its absence hold for the method and conditions named. In cells and extracts the contact can be indirect. Some results given as binding are weak or reduced against the parent protein; the word gives no strength.
# Chains of the proteins cited; added tags and fusions are not shown.
# UniProt P17844: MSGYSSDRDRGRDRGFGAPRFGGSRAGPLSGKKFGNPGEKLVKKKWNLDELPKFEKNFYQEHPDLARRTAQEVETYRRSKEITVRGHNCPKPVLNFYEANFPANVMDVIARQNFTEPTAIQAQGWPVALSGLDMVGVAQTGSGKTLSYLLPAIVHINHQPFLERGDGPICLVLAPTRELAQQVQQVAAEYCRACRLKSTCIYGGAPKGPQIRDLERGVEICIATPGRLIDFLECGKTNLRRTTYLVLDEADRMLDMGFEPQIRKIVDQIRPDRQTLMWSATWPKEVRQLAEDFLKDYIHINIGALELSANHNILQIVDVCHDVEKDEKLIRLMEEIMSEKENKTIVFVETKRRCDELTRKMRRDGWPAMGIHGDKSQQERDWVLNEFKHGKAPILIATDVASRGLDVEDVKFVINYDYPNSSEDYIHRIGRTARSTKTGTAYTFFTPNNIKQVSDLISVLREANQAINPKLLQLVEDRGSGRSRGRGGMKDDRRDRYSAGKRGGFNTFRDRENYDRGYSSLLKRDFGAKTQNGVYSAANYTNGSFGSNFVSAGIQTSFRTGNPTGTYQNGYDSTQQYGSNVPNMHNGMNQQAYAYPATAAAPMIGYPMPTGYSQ
# UniProt P50750: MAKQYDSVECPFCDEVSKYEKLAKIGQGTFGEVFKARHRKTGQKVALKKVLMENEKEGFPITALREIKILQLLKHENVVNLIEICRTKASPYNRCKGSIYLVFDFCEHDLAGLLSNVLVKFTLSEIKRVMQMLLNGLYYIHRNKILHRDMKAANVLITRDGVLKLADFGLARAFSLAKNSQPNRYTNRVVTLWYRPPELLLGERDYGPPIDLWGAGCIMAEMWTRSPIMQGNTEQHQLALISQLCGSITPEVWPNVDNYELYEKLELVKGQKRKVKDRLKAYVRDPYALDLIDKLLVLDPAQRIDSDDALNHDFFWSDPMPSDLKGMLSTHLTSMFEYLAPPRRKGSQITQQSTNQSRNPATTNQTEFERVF
# UniProt P01106: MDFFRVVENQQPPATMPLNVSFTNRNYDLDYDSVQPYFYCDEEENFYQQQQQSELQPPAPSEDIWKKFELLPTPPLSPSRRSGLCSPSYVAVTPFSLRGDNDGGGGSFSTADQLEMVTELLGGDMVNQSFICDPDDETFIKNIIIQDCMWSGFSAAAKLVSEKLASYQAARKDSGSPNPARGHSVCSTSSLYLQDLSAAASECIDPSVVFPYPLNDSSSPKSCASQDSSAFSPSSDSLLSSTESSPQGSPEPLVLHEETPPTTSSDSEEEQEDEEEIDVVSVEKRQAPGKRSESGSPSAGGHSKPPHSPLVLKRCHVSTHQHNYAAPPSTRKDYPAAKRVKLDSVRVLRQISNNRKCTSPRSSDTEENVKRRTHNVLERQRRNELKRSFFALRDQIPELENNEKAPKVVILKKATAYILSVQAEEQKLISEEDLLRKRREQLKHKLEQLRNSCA
# UniProt Q9NQB0: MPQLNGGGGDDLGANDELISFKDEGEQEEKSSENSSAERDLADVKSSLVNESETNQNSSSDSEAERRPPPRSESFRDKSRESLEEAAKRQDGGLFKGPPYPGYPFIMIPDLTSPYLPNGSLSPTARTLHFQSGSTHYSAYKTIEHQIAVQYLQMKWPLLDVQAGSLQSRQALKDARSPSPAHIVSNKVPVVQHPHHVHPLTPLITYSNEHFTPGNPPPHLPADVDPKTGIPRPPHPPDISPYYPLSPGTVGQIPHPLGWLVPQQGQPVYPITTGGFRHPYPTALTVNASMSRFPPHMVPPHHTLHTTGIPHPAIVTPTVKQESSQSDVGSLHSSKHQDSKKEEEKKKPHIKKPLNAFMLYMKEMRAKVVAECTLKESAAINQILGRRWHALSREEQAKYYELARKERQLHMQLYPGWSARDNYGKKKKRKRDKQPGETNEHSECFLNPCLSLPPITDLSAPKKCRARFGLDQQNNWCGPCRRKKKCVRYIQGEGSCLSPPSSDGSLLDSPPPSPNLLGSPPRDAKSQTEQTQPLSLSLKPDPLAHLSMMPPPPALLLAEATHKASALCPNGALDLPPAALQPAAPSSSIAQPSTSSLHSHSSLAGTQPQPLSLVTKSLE
# B1: c‐Rel/NF‐κB (protein, UniProt Q04864 1-619)
# chain: MASGAYNPYIEIIEQPRQRGMRFRYKCEGRSAGSIPGEHSTDNNRTYPSIQIMNYYGKGKVRITLVTKNDPYKPHPHDLVGKDCRDGYYEAEFGQERRPLFFQNLGIRCVKKKEVKEAIITRIKAGINPFNVPEKQLNDIEDCDLNVVRLCFQVFLPDEHGNLTTALPPVVSNPIYDNRAPNTAELRICRVNKNCGSVRGGDEIFLLCDKVQKDDIEVRFVLNDWEAKGIFSQADVHRQVAIVFKTPPYCKAITEPVTVKMQLRRPSDQEVSESMDFRYLPDEKDTYGNKAKKQKTTLLFQKLCQDHVETGFRHVDQDGLELLTSGDPPTLASQSAGITVNFPERPRPGLLGSIGEGRYFKKEPNLFSHDAVVREMPTGVSSQAESYYPSPGPISSGLSHHASMAPLPSSSWSSVAHPTPRSGNTNPLSSFSTRTLPSNSQGIPPFLRIPVGNDLNASNACIYNNADDIVGMEASSMPSADLYGISDPNMLSNCSVNMMTTSSDSMGETDNPRLLSMNLENPSCNSVLDPRDLRQLHQMSSSSMSAGANSNTTVFVSQSDAFEGSDFSCADNSMINESGPSNSTNPNSHGFVQDSQYSGIGSMQNEQLSDSFPYEFFQV
# Legend:
# [1] = target: DDX5 (also called p68) (human (endogenous in SW620, Panc-1, HCT-8)) (UniProt P17844); test: co-IP; IP with anti-DDX5 antibody (normal IgG as control) from lysates of SW620 and Panc-1 cells (Figure 4C) and of HCT-8 and SW620 cells (Figure 4E,F); RIPA lysis buffer, protein A/G-agarose, 4°C; western blots of the partners; endogenous proteins
# [2] = target: CDK9 (human (endogenous in HCT-8, SW620)) (UniProt P50750); test: co-IP; IP with CDK9 antibody (control IgG) from lysates of HCT-8 and SW620 cells, western blot with DDX5 antibody; endogenous proteins
Molecule,binding [1],binding [2]
c‐Myc (from UniProt P01106 1-454),binds,–
DDX5 (also called p68) (from UniProt P17844 1-614),–,binds
TCF‐4 (from UniProt Q9NQB0 1-619),binds,–
B1,binds,–

# Source: PMC9126027
